Laboratory results taken from US20180028478A1, “ANTIVIRAL COMPOSITIONS DIRECTED AGAINST THE NUCLEOPROTEIN OF INFLUENZA VIRUSES” (priority 2011, published 2018).

Tests used:
uninfected MDCK cells = assay: MTT test on uninfected MDCK cells; settings: MTT 24 or 48 H, 2-500 μM
A549 cells = assay: MTT cell viability test on A549 cells

## COc1ccc2cc(C(C)C(=O)O)ccc2c1 (stereo not drawn) [Naproxen]
Uninfected MDCK cells
  toxicity (MTT): No toxicity
A549 cells; 48H incubation, 1 to 500 μm
  toxicity for A549 cells (MTT): not toxic
A549 cells; A549, MTT 48 H, 2-500 μM
  cellular toxicity (MTT): No toxicity
